From patent US20140107021A1 (priority 2010, published 2014) come the findings set out here.

The data set is described as follows: Fmoc solid-phase peptide synthesis; Rink MBHA amide resin; DEPBT or HBTU (Boc); DIC/HOBT (Fmoc). Particulars: whole synthesis, scale 0.1 mmol, side-chain lactam ring, sequence written open.

As for “HO-PLA-Thr-Ser-Asp-Tyr-Ser-Lys-Tyr-Leu-Asp-Glu-Arg-Arg-Ala-Lys-Asp-Phe-Val-Gln-Trp-Leu-Met-Asp-Thr-NH2”, the crude mass is recorded as 150˜250 mg and the isolated mass is 20˜30 mg. Moreover, the “final HPLC purity” value (analytical HPLC, 220 nm) came to 95% purity. Moreover, for the setting “overall”, the isolated yield was 10˜15% yield totally.
